Values from PubChem BioAssay AID1224830 (NIAID, 2016).
The deposit covers about 18,000 reagents; below is a part drawn at random. About 2,900 of all reagents (16%) count as active. 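Calls are made per well; low scores hint the gene aids the LPS response, high scores that it dampens it.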 A number with no mark means an inactive call. Repeated entries: four replicate wells of each siRNA pool.

Assay: 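Regulators of TLR4 signalling towards TNF-alpha in macrophage-like cells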 (primary screen)
System: human THP-1 monocytic leukaemia cells, TNF dual-luciferase reporter clone, PMA-differentiated to macrophage-like cells
Reagents: siRNA pool against human genes, 50 nM
Timing: LPS for 4 h, given about 3 days after siRNA transfection
Treatment: bacterial LPS (TLR4 ligand), 10 ng/ml
Measurement: 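Ratio of firefly to renilla light, scaled to the plate median and expressed as a robust z-score per replicate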
Scale: TNF reporter robust z-score: higher = stronger TNF reporter response to LPS
Call rule: 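Each well counts as active if its z-score is over 2.8 or under -1.5; controls are left without a call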

| target gene | TNF reporter robust z-score |
| --- | --- |
| NR3C1 | 0.36 |
| NR3C1 | 1.39 |
| NR3C1 | 0.75 |
| NR3C1 | 1.7 |
| ZNRF4 | -1.55 (active) |
| ZNRF4 | -1.06 |
| ZNRF4 | -0.1 |
| ZNRF4 | 1.19 |
| MYH10 | 1.05 |
| MYH10 | 0.87 |
| MYH10 | 0.89 |
| MYH10 | 1.55 |
| BBX | 0.46 |
| BBX | 0.18 |
| BBX | 0.77 |
| BBX | 1.19 |
| CPA1 | -1.07 |
| CPA1 | 1.72 |
| CPA1 | -0.95 |
| CPA1 | 0.93 |
| PPP1R26 | 0.59 |
| PPP1R26 | 0.17 |
| PPP1R26 | 0.25 |
| PPP1R26 | 1.37 |
| SH3BP5 | 0.02 |
| SH3BP5 | -0.18 |
| SH3BP5 | 0.19 |
| SH3BP5 | 0.23 |
| MLN | 1.27 |
| MLN | 2.28 |
| MLN | -0.65 |
| MLN | -2.04 (active) |

The list goes on, starting with the last 3 of the part before.
| target gene | TNF reporter robust z-score |
| --- | --- |
| MLN | 2.28 |
| MLN | -0.65 |
| MLN | -2.04 (active) |
| PPP1R21 | -0.69 |
| PPP1R21 | -0.09 |
| PPP1R21 | -0.73 |
| PPP1R21 | -0.51 |
| CCT8L1P | 1.55 |
| CCT8L1P | 1.68 |
| CCT8L1P | -0.23 |
| CCT8L1P | -0.46 |
| EP300 | -0.22 |
| EP300 | -0.82 |
| EP300 | -0.41 |
| EP300 | 0.36 |
| XK | 0.71 |
| XK | 0.62 |
| XK | 0.86 |
| XK | 0.89 |
